This assay has as its system L1210 leukemia ip in BDF1 mice, survival T/C. Kind of assay: NCI In Vivo Anticancer Drug Screen. Data for tumor model L1210 Leukemia (intraperitoneal) in B6D2F1 (BDF1) mice. The conditions noted are these: T/C endpoint: mean survival time, higher T/C = longer survival.
[1] abbreviates: dose: 100.0 mg/kg/injection, schedule: Q04DX003 (ip), vehicle: saline.
Setting [2] is: dose: 200.0 mg/kg/injection, schedule: Q04DX003 (ip), vehicle: saline.
Where [3] appears, read: dose: 400.0 mg/kg/injection, schedule: Q04DX003 (ip), vehicle: saline.
[4] abbreviates: dose: 400.0 mg/kg/injection, schedule: Q01DX001 (ip), vehicle: saline.
Setting [5] is: dose: 200.0 mg/kg/injection, schedule: Q01DX009 (ip), vehicle: saline with Tween-80.
[6] abbreviates: dose: 200.0 mg/kg/injection, schedule: Q04DX003 (ip), vehicle: Klucel (hydroxypropylcellulose) (HPC).
Setting [7] is: dose: 400.0 mg/kg/injection, schedule: Q04DX003 (ip), vehicle: Klucel (hydroxypropylcellulose) (HPC).
Setting [8] is: dose: 200.0 mg/kg/injection, schedule: Q01DX009 (ip), vehicle: saline.
Where [9] appears, read: dose: 400.0 mg/kg/injection, schedule: Q01DX009 (ip), vehicle: Klucel (hydroxypropylcellulose) (HPC).
[10] abbreviates: dose: 25.0 mg/kg/injection, schedule: Q01DX009 (ip), vehicle: saline.
Setting [11] is: dose: 100.0 mg/kg/injection, schedule: Q01DX001 (ip), vehicle: Klucel (hydroxypropylcellulose) (HPC).
Where [12] appears, read: dose: 400.0 mg/kg/injection, schedule: Q01DX009 (ip), vehicle: saline.

The list does not hold the whole screen: it is rich in T/C values a quarter to a half above the control, in often repeated tests (any T/C) and in doses without a T/C. Other doses and runs of a compound stand elsewhere. T/C gives the treated animals as a percentage of the vehicle group. Some doses have a count of surviving animals in place of a T/C: the source files T/C as zero there, which appears to mark a toxic dose or a test without result, not a measured value. Some survivor counts are full or nearly so, which does not show that the dose was tolerated: survival well below the control is almost never listed, so the zero probably covers shortened survival too. Survivors were counted at the toxicity check, usually on the fifth day, unless a day is given; later deaths do not show. Schedules are NCI's codes, read here as Q, the interval in days (D) or hours (H), X, the number of doses. Some doses were run more than once; their values stand side by side, smallest first. Some molecules as drawn cover several salts, stereoisomers or complexes of the source; a dose is that of the sample tested.

Data on 31 compounds can be found in PubChem BioAssay AID248 (DTP/NCI, 2004).

With `CCCCOCCC1CCNCC1`, the survivor count is reported as 1 of 6 under setting [1], 0 of 6 under setting [2] and 0 of 6 under setting [3].

For the compound `CCOC(=O)c1ccc(N=NC2C(=O)N(c3ccccc3)N=C2C)cc1` (stereo unspecified), the survivor count under setting [4] was 0 of 4.

On to `CCC(=O)NC1=C(N2CC2C)C(=O)C(NC(=O)CC)=C(N2CC2C)C1=O` (stereo unspecified), for which the survivor count (dose: 55.0 mg/kg/injection, schedule: Q01DX009 (ip), vehicle: Klucel (hydroxypropylcellulose) (HPC)) was 6 of 6.

In the case of `O=C(O)c1ccc(N=Nc2ncc[nH]2)cc1`, the survivor count runs as follows: (dose: 100.0 mg/kg/injection, schedule: Q01DX009 (ip), vehicle: saline with Tween-80) 0 of 3; under setting [5], 1 of 3.

For the compound `NC1CCC(CC23CC4CC(CC(C4)C2)C3)CC1` (stereo unspecified), the survivor count is recorded as 3 of 6 under setting [6] and 0 of 6 under setting [7].

For `Cc1cnc2c(N)nn(C)c2n1`, the survivor count under setting [8] was 1 of 6 and the survivor count (dose: 400.0 mg/kg/injection, schedule: Q04DX003 (ip), vehicle: alcohol) is reported as 0 of 6.

For `CCc1ccc2c(c1)N(CCCN(CCCl)CCCl)c1ccccc1S2`, the survivor count by setting is: (dose: 25.0 mg/kg/injection, schedule: Q01DX009 (ip), vehicle: saline with Tween-80) 2 of 6; (dose: 50.0 mg/kg/injection, schedule: Q01DX009 (ip), vehicle: saline with Tween-80) 0 of 6; (dose: 75.0 mg/kg/injection, schedule: Q04DX003 (ip), vehicle: alcohol) 6 of 6; (dose: 113.0 mg/kg/injection, schedule: Q04DX003 (ip), vehicle: alcohol) 3 of 6; (dose: 170.0 mg/kg/injection, schedule: Q04DX003 (ip), vehicle: alcohol) 3 of 6.

`CCCCCCCCCCCC[N+](C)(C)Cc1ccccc1` (tested in a mixture with another compound): the survivor count (dose: 16.0 mg/kg/injection, schedule: Q01DX015 (ip), vehicle: saline) is reported as 1 of 6.

With `CN=C(Nc1ccccc1C)SC`, the survivor count under setting [4] is reported as 2 of 6.

As for `N#CCCCN1CCCCC1`, the survivor count is given as 2 of 6 under setting [1], 0 of 6 under setting [2] and 0 of 6 under setting [3].

With `Cl/C=C(\Cl)CCl`, the survivor count is, setting by setting: under setting [5], 5 of 6; (dose: 400.0 mg/kg/injection, schedule: Q01DX009 (ip), vehicle: saline with Tween-80) 2 of 6.

On to `CN(C)C(=O)Sc1ccc(S(=O)(=O)F)cc1[N+](=O)[O-]`, for which the survivor count under setting [9] is recorded as 0 of 6.

Turning to `FC(F)(F)c1ccc2c(c1)N(CCCN1CC[N+]3(CCOCC3)CC1)c1ccccc1S2`, the survivor count runs as follows: under setting [10], 1 of 6; (dose: 50.0 mg/kg/injection, schedule: Q04DX003 (ip), vehicle: saline) 1 of 6; under setting [1], 0 of 6.

Regarding `N/C(=N\N=C\c1ccccn1)c1ccccn1`, the survivor count (dose: 5.0 mg/kg/injection, schedule: Q01DX001 (ip), vehicle: water) is given as 4 of 4; the survivor count (dose: 20.0 mg/kg/injection, schedule: Q01DX001 (ip), vehicle: water) was 4 of 4; the survivor count (dose: 40.0 mg/kg/injection, schedule: Q01DX001 (ip), vehicle: water) is 0 of 4; the survivor count (dose: 50.0 mg/kg/injection, schedule: Q01DX001 (ip), vehicle: water) was 0 of 4; the survivor count (dose: 80.0 mg/kg/injection, schedule: Q01DX001 (ip), vehicle: water) is reported as 0 of 4; the survivor count (dose: 100.0 mg/kg/injection, schedule: Q01DX001 (ip), vehicle: water) is 0 of 4. The survivor count is recorded as 0 of 4 (dose: 200.0 mg/kg/injection, schedule: Q01DX001 (ip), vehicle: water) and 0 of 4 (dose: 400.0 mg/kg/injection, schedule: Q01DX001 (ip), vehicle: water).

For `O=S(=O)(NS(=O)(=O)c1ccc(Cl)cc1)c1ccc(Cl)cc1`, under setting [7], the survivor count was 1 of 6.

On to `CC(=O)c1ccc(S(=O)(=O)Cl)cc1`, for which the survivor count under setting [4] is given as 2 of 4.

For `CC1C2CCC(C2)C1N` (stereo unspecified), the survivor count is 3 of 6 under setting [2]; 0 of 6 and 3 of 6 under setting [3].

With `CC1=CC(=O)N(C2=CC(=O)C=CC2=O)/C1=C/C#N`, the survivor count is recorded as 1 of 6 under setting [11] and 1 of 6 (dose: 200.0 mg/kg/injection, schedule: Q01DX001 (ip), vehicle: Klucel (hydroxypropylcellulose) (HPC)).

With `Cc1ccc(Nc2nc(N)nc(N)c2N=O)cc1C`, the survivor count runs as follows: under setting [11], 0 of 3; (dose: 400.0 mg/kg/injection, schedule: Q01DX001 (ip), vehicle: Klucel (hydroxypropylcellulose) (HPC)) 3 of 3.

For `CCc1nc(N(C)CC(=O)O)nc(CC)c1-c1ccccc1O`, the survivor count (dose: 200.0 mg/kg/injection, schedule: Q04DX002 (ip), vehicle: Klucel (hydroxypropylcellulose) (HPC)) is given as 3 of 3.

As to `CC(C)(C)NC[Si](C)(C)C`, the survivor count by setting is: under setting [8], 0 of 6; under setting [12], 0 of 6.

Turning to `FC(F)(F)c1ccc2c(c1)N(CCCN1CCN(CCCl)CC1)c1ccccc1S2`, the survivor count (dose: 6.25 mg/kg/injection, schedule: Q01DX009 (ip), vehicle: saline) is reported as 6 of 6; the survivor count under setting [10] is recorded as 5 of 6; the survivor count under setting [1] is listed as 5 of 6; the survivor count under setting [2] is 2 of 6; the survivor count under setting [3] is reported as 0 of 6.

For `CC(=O)OC1C(OCc2ccccc2)OC(COCc2ccccc2)C(OC2OC(COCc3ccccc3)C(OCc3ccccc3)C(OCc3ccccc3)C2OCc2ccccc2)C1OCc1ccccc1` (stereo unspecified), the survivor count runs as follows: (dose: 25.0 mg/kg/injection, schedule: Q04DX003 (ip), vehicle: Klucel (hydroxypropylcellulose) (HPC)) 6 of 6; (dose: 42.5 mg/kg/injection, schedule: Q01DX009 (ip), vehicle: Klucel (hydroxypropylcellulose) (HPC)) 6 of 6; (dose: 100.0 mg/kg/injection, schedule: Q01DX001 (ip), vehicle: other) 6 of 6; (dose: 170.0 mg/kg/injection, schedule: Q01DX009 (ip), vehicle: Klucel (hydroxypropylcellulose) (HPC)) 6 of 6; (dose: 200.0 mg/kg/injection, schedule: Q01DX001 (ip), vehicle: other) 6 of 6; (dose: 400.0 mg/kg/injection, schedule: Q01DX001 (ip), vehicle: other) 6 of 6.

As for `OCC(Br)CCl` (stereo unspecified), the survivor count was 3 of 6 (dose: 100.0 mg/kg/injection, schedule: Q01DX009 (ip), vehicle: saline); 0 of 6 under setting [8]; 0 of 6 under setting [12].

Regarding `O=[N+]([O-])c1cccc(C=Nc2cc([N+](=O)[O-])ccc2O)c1`, the survivor count under setting [9] is 6 of 6.

`CC(=O)c1cccc(OCC(O)CN(C(C)C)C(C)C)c1` (stereo unspecified): the survivor count under setting [12] is reported as 0 of 6.

Consider `COc1ccccc1C1CCCCCCC1OS(=O)(=O)c1ccc(C)cc1` (stereo unspecified), for which the survivor count by setting is: (dose: 150.0 mg/kg/injection, schedule: Q01DX001 (ip), vehicle: acetone) 6 of 6; (dose: 300.0 mg/kg/injection, schedule: Q04DX003 (ip), vehicle: saline) 6 of 6.

Consider `CC(C)NC(C)c1c[nH]c2ccccc12` (stereo unspecified), for which the survivor count is 1 of 6 (dose: 100.0 mg/kg/injection, schedule: Q04DX003 (ip), vehicle: Klucel (hydroxypropylcellulose) (HPC)); 0 of 6 under setting [6]; 0 of 6 under setting [7].

With `OCc1nccn1Cc1ccccc1`, the survivor count by setting is: under setting [12], 0 of 6; (dose: 400.0 mg/kg/injection, schedule: Q01DX009 (ip), vehicle: water) 1 of 6.

For `Cc1ccccc1NC(=O)Oc1ccc2c(C)cc(=O)oc2c1`, the survivor count under setting [9] is listed as 6 of 6.

Take `Cc1ccc(S(=O)(=O)OCC2C(c3ccccc3)CCC(c3ccccc3)C2COS(=O)(=O)c2ccc(C)cc2)cc1` (stereo unspecified): under setting [9], the survivor count was 6 of 6.
